The values that follow come from the supplement of paper PMC12067093, “Discovery and optimisation of a covalent ligand for TRIM25 and its application to targeted protein ubiquitination” (Chemical Science, 2025).

Chains of the proteins cited; added tags and fusions are not shown. Lines headed by an entry give the natural chain unless they say otherwise; changes in a name come on top.
UniProt P25205: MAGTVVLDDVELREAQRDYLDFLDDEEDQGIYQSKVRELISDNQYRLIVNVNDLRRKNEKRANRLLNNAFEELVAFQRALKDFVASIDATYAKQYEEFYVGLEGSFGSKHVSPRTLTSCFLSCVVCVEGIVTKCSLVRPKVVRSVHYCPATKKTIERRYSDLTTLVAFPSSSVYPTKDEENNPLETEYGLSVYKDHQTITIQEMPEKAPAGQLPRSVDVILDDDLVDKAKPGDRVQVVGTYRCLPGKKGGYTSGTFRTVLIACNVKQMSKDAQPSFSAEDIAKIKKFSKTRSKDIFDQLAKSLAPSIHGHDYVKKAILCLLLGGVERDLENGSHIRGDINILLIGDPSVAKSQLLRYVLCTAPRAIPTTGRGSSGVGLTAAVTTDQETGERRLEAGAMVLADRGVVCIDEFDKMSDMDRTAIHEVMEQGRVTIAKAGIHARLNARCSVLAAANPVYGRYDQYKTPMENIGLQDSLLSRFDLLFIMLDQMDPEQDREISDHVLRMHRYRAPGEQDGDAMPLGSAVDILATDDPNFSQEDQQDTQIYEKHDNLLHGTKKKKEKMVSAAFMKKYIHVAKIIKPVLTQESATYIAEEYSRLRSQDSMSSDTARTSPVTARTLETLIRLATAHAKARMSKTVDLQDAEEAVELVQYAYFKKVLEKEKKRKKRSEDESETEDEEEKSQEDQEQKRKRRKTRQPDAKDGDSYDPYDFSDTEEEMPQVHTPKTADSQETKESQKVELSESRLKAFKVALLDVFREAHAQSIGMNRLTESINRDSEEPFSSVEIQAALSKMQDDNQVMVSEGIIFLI
UniProt Q9NU22: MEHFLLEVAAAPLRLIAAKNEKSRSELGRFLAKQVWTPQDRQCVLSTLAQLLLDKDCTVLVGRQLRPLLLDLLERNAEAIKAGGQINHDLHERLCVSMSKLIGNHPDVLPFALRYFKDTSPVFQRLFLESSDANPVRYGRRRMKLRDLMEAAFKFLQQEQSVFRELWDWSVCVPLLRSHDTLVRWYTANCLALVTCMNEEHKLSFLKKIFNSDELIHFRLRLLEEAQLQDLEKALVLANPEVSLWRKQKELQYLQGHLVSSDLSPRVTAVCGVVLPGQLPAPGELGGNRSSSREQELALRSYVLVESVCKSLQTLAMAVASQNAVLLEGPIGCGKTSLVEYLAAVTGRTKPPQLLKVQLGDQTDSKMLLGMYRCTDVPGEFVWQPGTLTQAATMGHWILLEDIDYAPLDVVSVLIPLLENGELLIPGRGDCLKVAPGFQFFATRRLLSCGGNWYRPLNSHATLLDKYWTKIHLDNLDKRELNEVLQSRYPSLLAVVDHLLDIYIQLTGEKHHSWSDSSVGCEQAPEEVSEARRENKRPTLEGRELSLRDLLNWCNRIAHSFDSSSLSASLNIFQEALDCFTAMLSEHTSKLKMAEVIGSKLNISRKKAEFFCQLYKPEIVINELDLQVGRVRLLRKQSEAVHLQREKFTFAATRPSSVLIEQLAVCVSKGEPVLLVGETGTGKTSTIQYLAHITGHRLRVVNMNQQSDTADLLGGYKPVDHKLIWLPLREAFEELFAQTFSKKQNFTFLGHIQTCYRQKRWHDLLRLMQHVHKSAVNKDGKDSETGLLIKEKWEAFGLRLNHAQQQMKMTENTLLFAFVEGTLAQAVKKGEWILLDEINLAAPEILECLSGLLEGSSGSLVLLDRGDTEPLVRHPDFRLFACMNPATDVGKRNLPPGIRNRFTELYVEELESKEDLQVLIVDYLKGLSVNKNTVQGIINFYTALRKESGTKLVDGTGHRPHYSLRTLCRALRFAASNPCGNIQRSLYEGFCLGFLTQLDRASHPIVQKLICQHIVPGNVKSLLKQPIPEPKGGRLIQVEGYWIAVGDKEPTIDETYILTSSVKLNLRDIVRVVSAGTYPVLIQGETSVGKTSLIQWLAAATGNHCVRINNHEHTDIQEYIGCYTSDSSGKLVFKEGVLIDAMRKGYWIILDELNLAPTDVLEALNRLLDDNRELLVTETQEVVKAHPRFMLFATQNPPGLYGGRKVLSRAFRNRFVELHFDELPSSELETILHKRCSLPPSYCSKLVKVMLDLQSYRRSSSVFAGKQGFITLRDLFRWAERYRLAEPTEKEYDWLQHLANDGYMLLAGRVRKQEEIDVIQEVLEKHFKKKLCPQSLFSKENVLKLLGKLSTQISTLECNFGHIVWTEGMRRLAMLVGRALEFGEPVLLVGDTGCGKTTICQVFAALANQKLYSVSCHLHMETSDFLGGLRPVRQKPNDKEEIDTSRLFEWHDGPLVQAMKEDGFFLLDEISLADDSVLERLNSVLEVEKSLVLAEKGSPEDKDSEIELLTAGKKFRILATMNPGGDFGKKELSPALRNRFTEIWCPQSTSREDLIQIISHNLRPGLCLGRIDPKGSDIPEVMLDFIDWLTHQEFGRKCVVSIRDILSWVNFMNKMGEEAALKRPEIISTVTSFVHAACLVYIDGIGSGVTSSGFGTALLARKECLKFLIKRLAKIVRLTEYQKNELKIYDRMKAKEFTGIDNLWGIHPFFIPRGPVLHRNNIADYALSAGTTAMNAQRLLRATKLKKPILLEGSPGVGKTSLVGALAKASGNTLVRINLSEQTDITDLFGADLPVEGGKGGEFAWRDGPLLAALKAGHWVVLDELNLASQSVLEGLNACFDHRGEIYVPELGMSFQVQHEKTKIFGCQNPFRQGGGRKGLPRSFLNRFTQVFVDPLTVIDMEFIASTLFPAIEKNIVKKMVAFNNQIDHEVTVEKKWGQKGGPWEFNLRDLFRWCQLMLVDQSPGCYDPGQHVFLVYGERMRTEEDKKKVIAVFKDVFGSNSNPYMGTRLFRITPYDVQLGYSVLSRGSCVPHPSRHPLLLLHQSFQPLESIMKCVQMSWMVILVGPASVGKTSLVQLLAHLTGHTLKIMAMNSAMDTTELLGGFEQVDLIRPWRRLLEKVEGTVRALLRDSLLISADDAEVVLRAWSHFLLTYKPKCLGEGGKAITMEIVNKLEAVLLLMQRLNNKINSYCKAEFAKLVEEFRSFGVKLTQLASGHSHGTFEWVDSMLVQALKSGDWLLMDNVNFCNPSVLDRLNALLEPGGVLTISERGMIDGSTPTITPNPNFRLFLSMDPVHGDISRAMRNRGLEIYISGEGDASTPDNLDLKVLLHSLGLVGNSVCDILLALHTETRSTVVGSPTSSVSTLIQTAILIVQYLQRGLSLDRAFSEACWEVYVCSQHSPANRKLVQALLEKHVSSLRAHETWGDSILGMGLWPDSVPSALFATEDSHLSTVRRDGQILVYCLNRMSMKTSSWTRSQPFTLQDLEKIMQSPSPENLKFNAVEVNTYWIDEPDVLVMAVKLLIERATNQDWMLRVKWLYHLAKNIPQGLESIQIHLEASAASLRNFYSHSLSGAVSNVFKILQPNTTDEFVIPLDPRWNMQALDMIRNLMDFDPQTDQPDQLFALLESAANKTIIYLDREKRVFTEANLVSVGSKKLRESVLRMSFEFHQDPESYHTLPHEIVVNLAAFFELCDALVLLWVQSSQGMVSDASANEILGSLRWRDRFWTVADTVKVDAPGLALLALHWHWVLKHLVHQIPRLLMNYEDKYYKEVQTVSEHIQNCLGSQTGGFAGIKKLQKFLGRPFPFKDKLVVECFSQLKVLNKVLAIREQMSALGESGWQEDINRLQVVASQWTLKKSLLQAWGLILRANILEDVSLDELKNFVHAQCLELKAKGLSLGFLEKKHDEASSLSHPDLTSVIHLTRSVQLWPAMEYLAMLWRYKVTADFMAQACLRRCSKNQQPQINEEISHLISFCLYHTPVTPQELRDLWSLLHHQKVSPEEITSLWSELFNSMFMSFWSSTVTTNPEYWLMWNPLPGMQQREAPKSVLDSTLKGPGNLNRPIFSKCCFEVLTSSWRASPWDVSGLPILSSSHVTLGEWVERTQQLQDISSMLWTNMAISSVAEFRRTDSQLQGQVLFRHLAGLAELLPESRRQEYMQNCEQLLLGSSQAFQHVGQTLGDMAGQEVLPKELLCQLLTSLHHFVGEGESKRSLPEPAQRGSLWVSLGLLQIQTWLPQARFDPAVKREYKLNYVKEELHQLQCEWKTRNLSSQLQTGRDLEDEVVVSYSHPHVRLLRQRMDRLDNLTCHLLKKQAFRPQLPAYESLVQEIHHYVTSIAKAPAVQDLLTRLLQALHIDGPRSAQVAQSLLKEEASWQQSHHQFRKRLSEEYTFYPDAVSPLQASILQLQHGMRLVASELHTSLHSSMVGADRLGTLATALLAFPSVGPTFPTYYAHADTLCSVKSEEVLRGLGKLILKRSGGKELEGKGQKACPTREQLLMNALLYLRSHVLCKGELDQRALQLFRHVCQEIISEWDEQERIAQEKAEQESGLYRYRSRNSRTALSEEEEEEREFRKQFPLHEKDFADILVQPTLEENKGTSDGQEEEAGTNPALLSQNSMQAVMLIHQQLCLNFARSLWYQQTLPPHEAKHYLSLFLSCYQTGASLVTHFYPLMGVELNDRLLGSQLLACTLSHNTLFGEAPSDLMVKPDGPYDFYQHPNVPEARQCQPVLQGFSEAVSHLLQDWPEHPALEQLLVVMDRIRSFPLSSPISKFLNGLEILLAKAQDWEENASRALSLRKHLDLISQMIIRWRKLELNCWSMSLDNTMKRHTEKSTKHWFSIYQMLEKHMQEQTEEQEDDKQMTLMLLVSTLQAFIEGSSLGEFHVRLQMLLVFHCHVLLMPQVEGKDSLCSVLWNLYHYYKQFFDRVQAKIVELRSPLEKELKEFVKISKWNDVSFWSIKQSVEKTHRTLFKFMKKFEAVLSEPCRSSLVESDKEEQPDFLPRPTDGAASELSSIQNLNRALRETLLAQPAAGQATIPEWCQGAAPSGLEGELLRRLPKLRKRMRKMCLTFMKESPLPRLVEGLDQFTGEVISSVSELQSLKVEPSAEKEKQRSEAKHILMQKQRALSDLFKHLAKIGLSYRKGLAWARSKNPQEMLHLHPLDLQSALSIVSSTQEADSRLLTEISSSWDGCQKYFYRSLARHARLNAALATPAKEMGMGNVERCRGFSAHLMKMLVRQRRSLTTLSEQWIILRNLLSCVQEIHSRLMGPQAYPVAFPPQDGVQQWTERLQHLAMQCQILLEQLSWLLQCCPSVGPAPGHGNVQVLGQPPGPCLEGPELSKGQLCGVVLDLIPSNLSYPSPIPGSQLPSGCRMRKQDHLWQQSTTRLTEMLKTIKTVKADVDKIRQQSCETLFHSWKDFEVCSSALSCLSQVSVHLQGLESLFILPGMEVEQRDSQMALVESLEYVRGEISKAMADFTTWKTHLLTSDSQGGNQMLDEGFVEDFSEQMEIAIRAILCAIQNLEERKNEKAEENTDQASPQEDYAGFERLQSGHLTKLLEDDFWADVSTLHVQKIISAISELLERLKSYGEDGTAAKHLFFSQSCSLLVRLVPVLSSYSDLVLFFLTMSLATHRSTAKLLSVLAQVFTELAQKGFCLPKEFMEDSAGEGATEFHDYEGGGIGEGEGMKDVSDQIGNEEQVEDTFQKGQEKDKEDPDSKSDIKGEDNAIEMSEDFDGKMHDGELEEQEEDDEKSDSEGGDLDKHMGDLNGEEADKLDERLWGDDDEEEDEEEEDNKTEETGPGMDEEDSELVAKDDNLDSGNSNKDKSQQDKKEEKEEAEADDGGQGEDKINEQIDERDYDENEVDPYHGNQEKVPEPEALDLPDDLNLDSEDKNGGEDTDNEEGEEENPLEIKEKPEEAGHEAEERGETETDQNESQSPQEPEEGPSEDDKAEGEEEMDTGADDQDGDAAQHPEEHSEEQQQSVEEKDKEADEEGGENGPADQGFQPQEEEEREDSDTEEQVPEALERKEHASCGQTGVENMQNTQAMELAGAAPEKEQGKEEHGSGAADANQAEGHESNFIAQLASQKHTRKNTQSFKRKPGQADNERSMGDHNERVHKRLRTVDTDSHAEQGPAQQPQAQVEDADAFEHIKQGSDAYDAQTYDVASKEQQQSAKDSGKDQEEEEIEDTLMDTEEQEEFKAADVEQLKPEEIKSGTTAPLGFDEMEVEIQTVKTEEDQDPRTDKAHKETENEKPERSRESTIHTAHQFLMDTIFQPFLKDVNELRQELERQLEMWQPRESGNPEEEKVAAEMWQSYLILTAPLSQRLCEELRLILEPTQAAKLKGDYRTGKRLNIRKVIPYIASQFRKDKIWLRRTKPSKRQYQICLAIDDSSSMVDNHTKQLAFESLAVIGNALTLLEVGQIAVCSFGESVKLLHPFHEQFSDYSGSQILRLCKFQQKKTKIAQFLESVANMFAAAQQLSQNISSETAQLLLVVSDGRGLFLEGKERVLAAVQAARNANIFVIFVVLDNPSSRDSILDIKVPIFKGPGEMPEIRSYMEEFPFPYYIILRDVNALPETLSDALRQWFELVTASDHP
UniProt P10620: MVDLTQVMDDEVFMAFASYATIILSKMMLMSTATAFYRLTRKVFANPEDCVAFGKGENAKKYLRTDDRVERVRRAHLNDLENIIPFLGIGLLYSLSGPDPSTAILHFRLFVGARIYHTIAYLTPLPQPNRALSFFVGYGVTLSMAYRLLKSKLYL

Compound in this test: Cc1cc(ccc1-c1ccccc1)C(=O)N1CCCN(CC1)C(=O)CCl [compound 10]
The test is described as follows: probe-labelled cysteine peptide fold change vs DMSO (competition) (log2 fold change); higher = less target engagement (more negative = stronger competition). To be noted: THP-1, incubation time: 4 h.

The list shows a part of the results.
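Also: competitive profiling in live THP-1 cells: cysteine peptides tagged with an iodoacetamide desthiobiotin (IA-DTB) probe, intensity after compound treatment relative to DMSO-treated cells.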

For “MFAP3_P55082_73_EGTSVSIECLLTASHYEDVHWHNSK (UniProt P55082)”, the “probe-labelled cysteine peptide fold change” value reads like this: (10 µM) -0.0487; (50 µM) -0.0712.

Turning to “MCM3_P25205_148_SVHYCPATK (UniProt P25205)”, the “probe-labelled cysteine peptide fold change” value (10 µM) was -0.0106 and the “probe-labelled cysteine peptide fold change” value (50 µM) was -0.143.

In the case of “MED6_O75586_137_VLTAVHGIQSAFDEAMSYCR (UniProt O75586)”, the “probe-labelled cysteine peptide fold change” value runs as follows: (10 µM) 0.0128; (50 µM) 0.127.

Regarding “MCCC2_Q9HCC0_391_KGTHFVQLCCQR (UniProt Q9HCC0)”, the “probe-labelled cysteine peptide fold change” value is -0.144 (10 µM) and -0.214 (50 µM).

With “MDN1_Q9NU22_3308_MDRLDNLTCHLLK (UniProt Q9NU22)”, the “probe-labelled cysteine peptide fold change” value runs as follows: (10 µM) -0.00667; (50 µM) -0.264.

With “MDN1_Q9NU22_3985_KFEAVLSEPCR (UniProt Q9NU22)”, the “probe-labelled cysteine peptide fold change” value (10 µM) was -0.313 and the “probe-labelled cysteine peptide fold change” value (50 µM) was -0.0822.

For “METTL18_O95568_48_CSAEQFDLPQDHLWEHK (UniProt O95568)”, the “probe-labelled cysteine peptide fold change” value is -0.36 (10 µM) and -0.308 (50 µM).

“METTL2B_Q6P1Q9_241_CFAFVHDLCDEEK (UniProt Q6P1Q9)”: the “probe-labelled cysteine peptide fold change” value runs as follows: (10 µM) -0.063; (50 µM) 0.039.

For “MED18_Q9BUE0_43_GLCDNMEPETFLDHEMVFLLK (UniProt Q9BUE0)”, the “probe-labelled cysteine peptide fold change” value was 0.00665 (10 µM) and 0.113 (50 µM).

Take “MCM7_P33993_378_GNINICLMGDPGVAK (UniProt P33993)”: the “probe-labelled cysteine peptide fold change” value (10 µM) was -0.0869 and the “probe-labelled cysteine peptide fold change” value (50 µM) is -0.0399.

Take “MCM3_P25205_119_TLTSCFLSCVVCVEGIVTK (UniProt P25205)”: the “probe-labelled cysteine peptide fold change” value is, setting by setting: (10 µM) 0.0953; (50 µM) -0.331.

On to “MGST1_P10620_50_VFANPEDCVAFGK (UniProt P10620)”, for which the “probe-labelled cysteine peptide fold change” value runs as follows: (10 µM) -0.312; (50 µM) 0.269.

In the case of “MDH2_P40926_93_GCDVVVIPAGVPR (UniProt P40926)”, the “probe-labelled cysteine peptide fold change” value reads like this: (10 µM) 0.161; (50 µM) 0.0603.

Regarding “METAP2_P50579_121_VQTDPPSVPICDLYPNGVFPK (UniProt P50579)”, the “probe-labelled cysteine peptide fold change” value is -0.176 (10 µM) and 0.0192 (50 µM).

Consider “MCM3AP_O60318_800_GVFCASEAEFQGYNVLLSLNK (UniProt O60318)”, for which the “probe-labelled cysteine peptide fold change” value reads like this: (10 µM) 0.186; (50 µM) 0.139.

“MCRS1_Q96EZ8_84_CSGSEPSSSEK (UniProt Q96EZ8)”: the “probe-labelled cysteine peptide fold change” value is, setting by setting: (10 µM) -0.0254; (50 µM) -0.104.

For “MCM10_Q7L590_329_DLTQCVSLFLFGEVHK (UniProt Q7L590)”, the “probe-labelled cysteine peptide fold change” value is, setting by setting: (10 µM) 0.02; (50 µM) 0.672.

Take “MCM3_P25205_126_TLTSCFLSCVVCVEGIVTK (UniProt P25205)”: the “probe-labelled cysteine peptide fold change” value (10 µM) was -0.0625 and the “probe-labelled cysteine peptide fold change” value (50 µM) was -0.708.

As to “MDC1_Q14676_26_CNVEPVGR (UniProt Q14676)”, the “probe-labelled cysteine peptide fold change” value reads like this: (10 µM) -0.22; (50 µM) -0.341.

With “METTL3_Q86U44_336_YVHYEIDACMDSEAPGSK (UniProt Q86U44)”, the “probe-labelled cysteine peptide fold change” value is 0.0389 (10 µM) and 0.0106 (50 µM).

“MEFV_O15553_670_TAWILGACK (UniProt O15553)”: the “probe-labelled cysteine peptide fold change” value was -0.208 (10 µM) and -0.302 (50 µM).

Turning to “MED13L_Q71F56_1919_DWSILLGECSLQTISK (UniProt Q71F56)”, the “probe-labelled cysteine peptide fold change” value by setting is: (10 µM) -0.109; (50 µM) -0.0454.

Consider “METAP1_P53582_194+202_SCCTSVNEVICHGIPDR (UniProt P53582)”, for which the “probe-labelled cysteine peptide fold change” value (10 µM) stood at 0.352 and the “probe-labelled cysteine peptide fold change” value (50 µM) was -0.121.

Take “MCM5_P33992_221_CVDFQTLK (UniProt P33992)”: the “probe-labelled cysteine peptide fold change” value (10 µM) worked out at 0.05 and the “probe-labelled cysteine peptide fold change” value (50 µM) is -0.397.

Take “MCL1_Q07820_286_TINQESCIEPLAESITDVLVR (UniProt Q07820)”: the “probe-labelled cysteine peptide fold change” value reads like this: (10 µM) -0.373; (50 µM) 0.683.
